Publication PMC11750923

Sequences of proteins named here, by UniProt entry; tags and fusion partners are left off. Residues count along the entry.
UniProt P02771, 19-609: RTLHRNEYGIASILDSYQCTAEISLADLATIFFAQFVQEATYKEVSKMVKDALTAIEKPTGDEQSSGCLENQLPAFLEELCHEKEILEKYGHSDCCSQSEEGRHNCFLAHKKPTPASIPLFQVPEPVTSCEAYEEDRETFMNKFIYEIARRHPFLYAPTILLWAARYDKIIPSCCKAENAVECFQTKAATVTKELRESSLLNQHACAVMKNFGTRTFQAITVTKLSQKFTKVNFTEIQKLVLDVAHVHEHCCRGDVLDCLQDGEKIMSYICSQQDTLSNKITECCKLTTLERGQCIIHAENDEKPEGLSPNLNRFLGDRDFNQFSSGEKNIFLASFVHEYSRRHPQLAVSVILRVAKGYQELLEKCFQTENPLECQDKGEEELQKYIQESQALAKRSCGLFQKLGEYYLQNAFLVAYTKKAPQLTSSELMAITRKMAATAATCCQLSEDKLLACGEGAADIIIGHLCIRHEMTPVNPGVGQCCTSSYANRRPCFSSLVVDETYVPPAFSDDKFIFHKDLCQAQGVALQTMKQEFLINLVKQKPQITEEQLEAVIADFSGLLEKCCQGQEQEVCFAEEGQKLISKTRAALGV
UniProt P02769, 25-607: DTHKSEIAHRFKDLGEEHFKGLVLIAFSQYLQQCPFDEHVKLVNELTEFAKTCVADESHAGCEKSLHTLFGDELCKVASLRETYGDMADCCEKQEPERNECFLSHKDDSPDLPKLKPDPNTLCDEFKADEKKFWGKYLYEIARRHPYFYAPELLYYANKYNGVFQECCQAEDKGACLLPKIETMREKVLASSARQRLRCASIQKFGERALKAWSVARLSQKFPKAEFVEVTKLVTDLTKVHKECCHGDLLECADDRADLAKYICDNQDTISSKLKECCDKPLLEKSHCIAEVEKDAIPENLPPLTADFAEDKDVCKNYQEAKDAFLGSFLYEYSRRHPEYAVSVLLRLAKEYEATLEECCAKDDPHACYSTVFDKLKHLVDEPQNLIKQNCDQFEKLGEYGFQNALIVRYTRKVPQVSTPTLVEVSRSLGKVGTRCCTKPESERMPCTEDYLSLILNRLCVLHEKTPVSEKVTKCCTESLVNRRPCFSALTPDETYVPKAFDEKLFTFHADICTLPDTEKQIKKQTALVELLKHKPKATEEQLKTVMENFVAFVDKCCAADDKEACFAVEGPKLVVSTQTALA
UniProt P01033, 24-207: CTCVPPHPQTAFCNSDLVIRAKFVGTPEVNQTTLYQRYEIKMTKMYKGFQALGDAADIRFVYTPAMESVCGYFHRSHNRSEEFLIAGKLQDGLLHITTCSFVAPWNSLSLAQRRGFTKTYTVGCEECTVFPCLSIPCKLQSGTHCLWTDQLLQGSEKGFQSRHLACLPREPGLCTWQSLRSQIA

Experiments:
AFP (alpha-fetoprotein) = AFP (alpha-fetoprotein) (UniProt P02771); experiment: nitrocellulose filter binding; conditions: minimal binding; DPBS (138 mM NaCl, 2.67 mM KCl, 8.1 mM Na2HPO4, 1.47 mM KH2PO4, 1 mM CaCl2, 0.5 mM MgCl2); pH and temperature not stated; commercial protein; single-stranded DNA
[1] = target: BSA (bovine serum albumin) (bovine) (UniProt P02769); experiment: nitrocellulose filter binding; conditions: minimal binding; DPBS (138 mM NaCl, 2.67 mM KCl, 8.1 mM Na2HPO4, 1.47 mM KH2PO4, 1 mM CaCl2, 0.5 mM MgCl2); pH and temperature not stated; commercial protein; single-stranded DNA
[2] = target: T1, CEA (carcinoembryonic antigen) (UniProt P06731); experiment: nitrocellulose filter binding; conditions: minimal binding; DPBS (138 mM NaCl, 2.67 mM KCl, 8.1 mM Na2HPO4, 1.47 mM KH2PO4, 1 mM CaCl2, 0.5 mM MgCl2); pH and temperature not stated; commercial protein; single-stranded DNA
T1 sequence (looked up, limits assumed): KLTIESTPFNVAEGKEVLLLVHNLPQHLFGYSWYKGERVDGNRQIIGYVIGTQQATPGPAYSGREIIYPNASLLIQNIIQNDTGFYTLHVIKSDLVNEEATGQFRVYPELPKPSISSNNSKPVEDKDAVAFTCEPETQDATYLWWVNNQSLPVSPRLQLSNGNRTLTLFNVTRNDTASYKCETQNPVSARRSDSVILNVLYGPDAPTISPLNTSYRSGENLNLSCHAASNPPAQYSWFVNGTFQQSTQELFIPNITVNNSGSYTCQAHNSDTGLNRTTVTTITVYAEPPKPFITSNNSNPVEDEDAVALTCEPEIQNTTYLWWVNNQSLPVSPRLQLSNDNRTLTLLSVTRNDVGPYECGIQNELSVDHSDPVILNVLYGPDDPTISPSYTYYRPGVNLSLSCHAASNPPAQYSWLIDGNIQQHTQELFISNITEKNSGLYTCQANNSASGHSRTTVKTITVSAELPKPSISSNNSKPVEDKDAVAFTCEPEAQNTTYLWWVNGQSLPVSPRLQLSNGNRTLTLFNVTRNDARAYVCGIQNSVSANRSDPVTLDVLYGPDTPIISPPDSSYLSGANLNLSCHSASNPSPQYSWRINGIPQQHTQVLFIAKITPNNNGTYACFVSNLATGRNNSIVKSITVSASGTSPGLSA

[3] = target: TIMP-1 (tissue inhibitor of metalloproteinases 1) (human) (UniProt P01033); experiment: chemiluminescent immunoassay; conditions: DPBS (138 mM NaCl, 2.67 mM KCl, 8.1 mM Na2HPO4, 1.47 mM KH2PO4, 1 mM CaCl2, 0.5 mM MgCl2), pH and temperature not stated, commercial protein, protein details: His, single-stranded DNA

“CACGCATAGCGCCCCAACCCCAGTCGATGAAATTGCGTCGCGGGTGCCTATGCGTG [Apt-4]”: binds more weakly (AFP (alpha-fetoprotein)); binds more weakly [1]; binds more weakly [2].

“GCATAGCGCCCCAACCCCAGTCGATGAAATTGCGTCGCGGGTGCCTATGC [Apt-4-1C]”: binds ([3]; signal not decreased).

“GCCCCAACCCCAGTCGATGAAATTGCGTCGCGGGT [Apt-4-4C]”: binds more weakly ([3]; decreased signal).

“GCGCCCCAACCCCAGTCGATGAAATTGCGTCGCGGGTGC [Apt-4-3C]”: binds ([3]; signal not decreased).

“TAGCGCCCCAACCCCAGTCGATGAAATTGCGTCGCGGGTGCCTA [Apt-4-2C]”: binds ([3]; signal not decreased).

Weaker means in comparison with the reference protein, sequence or condition of that experiment. The exact form of at least one protein or probe is not confirmed. For some of these results: Tags and fusion partners may be left off the protein sequences shown. For some of these results: At least one verdict was read from the data and is not stated in words by the source.
